The target of assay [1] is T1, rat FOXM1 amino acids 337 to 437 (two-hybrid bait) (rat) (UniProt P97691).
T1 sequence: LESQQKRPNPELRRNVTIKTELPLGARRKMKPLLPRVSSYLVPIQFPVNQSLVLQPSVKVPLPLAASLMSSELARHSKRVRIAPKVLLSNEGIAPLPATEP
Kind of assay: two-hybrid; LexA-based yeast two-hybrid screen of an insulinoma cDNA library with rat FOXM1 337-437 as bait.

Amino acid sequences for entries named in this document (tags omitted). A change or cut given only in a name is not applied to a line headed by its entry.
UniProt Q12929: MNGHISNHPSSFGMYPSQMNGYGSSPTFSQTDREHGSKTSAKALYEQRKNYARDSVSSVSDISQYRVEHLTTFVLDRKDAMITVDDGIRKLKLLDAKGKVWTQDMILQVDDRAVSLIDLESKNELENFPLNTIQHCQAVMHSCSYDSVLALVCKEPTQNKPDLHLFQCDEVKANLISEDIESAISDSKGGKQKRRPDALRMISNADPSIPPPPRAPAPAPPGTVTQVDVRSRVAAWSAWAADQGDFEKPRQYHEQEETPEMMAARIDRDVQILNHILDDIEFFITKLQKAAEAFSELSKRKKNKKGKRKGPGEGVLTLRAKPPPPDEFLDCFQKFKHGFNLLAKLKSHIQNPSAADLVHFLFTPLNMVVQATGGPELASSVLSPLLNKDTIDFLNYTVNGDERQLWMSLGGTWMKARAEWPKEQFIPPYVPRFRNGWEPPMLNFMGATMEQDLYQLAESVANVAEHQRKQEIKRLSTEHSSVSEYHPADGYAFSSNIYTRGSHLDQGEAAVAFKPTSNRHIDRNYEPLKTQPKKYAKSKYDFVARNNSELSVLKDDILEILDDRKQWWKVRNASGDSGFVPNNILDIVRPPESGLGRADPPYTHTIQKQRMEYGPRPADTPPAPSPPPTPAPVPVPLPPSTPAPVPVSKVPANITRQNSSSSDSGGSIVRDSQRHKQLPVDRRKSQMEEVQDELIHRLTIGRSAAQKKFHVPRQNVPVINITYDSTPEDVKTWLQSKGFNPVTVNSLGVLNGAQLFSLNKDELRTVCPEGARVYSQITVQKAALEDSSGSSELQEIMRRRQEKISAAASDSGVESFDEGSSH

The target in assay [2] is EPS8-ΔNt-ΔSH3 (Gal4 two-hybrid bait) (human) (UniProt Q12929). Kind of assay: two-hybrid; Gal4-based Matchmaker system (Clontech); EPS8 constructs as bait in pGBT9, full-length FOXM1 as prey in pGAD424; growth on SC medium lacking leucine, tryptophan and histidine.
The target in assay [3] is EPS8-ΔSH3 (Gal4 two-hybrid bait) (human) (UniProt Q12929). Described as above.

No constants are given. Whether binding was seen depends on the method and setting. For part of these data: Binding can be weak; no strength is given.

Regarding “EPS8 isolated from an insulinoma cDNA library (two-hybrid prey)”, the binding result in assay [1] is recorded as “binds”.

B1: full-length human FOXM1c (Gal4 two-hybrid prey) (protein, UniProt Q08050-1 1-763)
chain: MKTSPRRPLILKRRRLPLPVQNAPSETSEEEPKRSPAQQESNQAEASKEVAESNSCKFPAGIKIINHPTMPNTQVVAIPNNANIHSIITALTAKGKESGSSGPNKFILISCGGAPTQPPGLRPQTQTSYDAKRTEVTLETLGPKPAARDVNLPRPPGALCEQKRETCADGEAAGCTINNSLSNIQWLRKMSSDGLGSRSIKQEMEEKENCHLEQRQVKVEEPSRPSASWQNSVSERPPYSYMAMIQFAINSTERKRMTLKDIYTWIEDHFPYFKHIAKPGWKNSIRHNLSLHDMFVRETSANGKVSFWTIHPSANRYLTLDQVFKPLDPGSPQLPEHLESQQKRPNPELRRNMTIKTELPLGARRKMKPLLPRVSSYLVPIQFPVNQSLVLQPSVKVPLPLAASLMSSELARHSKRVRIAPKVLLAEEGIAPLSSAGPGKEEKLLFGEGFSPLLPVQTIKEEEIQPGEEMPHLARPIKVESPPLEEWPSPAPSFKEESSHSWEDSSQSPTPRPKKSYSGLRSPTRCVSEMLVIQHRERRERSRSRRKQHLLPPCVDEPELLFSEGPSTSRWAAELPFPADSSDPASQLSYSQEVGGPFKTPIKETLPISSTPSKSVLPRTPESWRLTPPAKVGGLDFSPVQTSQGASDPLPDPLGLMDLSTTPLQSAPPLESPQRLLSSEPLDLISVPFGNSSPSDIDVPKPGSPEPQVSGLAANRSLTEGLVLDTMNDSLSKILLDISFPGLDEDPLGPDNINWSQFIPELQ
In the case of B1, the binding result in assay [2] was “no binding”; in assay [3], “binds”.

The values above are taken from paper PMC6433973.
